PubChem BioAssay AID1259282, Sanger Institute | 2017
The deposit covers 794 reagents; shown is an unselected part. In the full data, 11 (1.4%) were called active. 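Calls flag knock-downs that lower viability without drug; drug synergy appears only in the synergy scores; exposure time not stated.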 No viability above 1 is reported: the scale is capped. Further read-outs or replicates are left out here. The record does not give: the amount of reagent, the time to read-out.

- Test: 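siRNA screen across the kinome seeking drug combinations lethal to colorectal cancer cells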 (primary screen)
- System: DIFI human colorectal cancer cell line
- Reagents: siRNA pool against human genes
- Conditions: anchor drug at a mild dose (BYL719 1 µM, cetuximab 5 µg/ml, trametinib 10 nM) or DMSO vehicle; exposure time not given
- Detection: 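Viability relative to non-targeting pool wells, replicate mean, in DMSO or low-dose BYL719, cetuximab or trametinib; robust z-score without drug; synergy score per drug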
- Scale: robust z-score, knock-down alone: higher = more viable cells than typical knock-down; viability, knock-down alone: higher = more viable cells
- Units: viability, knock-down alone in fraction of control
- Hit rule: 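a knock-down is called essential if its DMSO robust z-score is under -3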
- Calls: active = essential (knock-down alone, z below -3); inactive = not essential

{"Gene": "CDC42BPB (CDC42 binding protein kinase beta)", "robust z-score, knock-down alone": 0.715, "viability, knock-down alone": 1, "activity call": "inactive"}
{"Gene": "EFNA5 (ephrin A5)", "robust z-score, knock-down alone": 0.715, "viability, knock-down alone": 1, "activity call": "inactive"}
{"Gene": "PRKG2 (protein kinase cGMP-dependent 2)", "robust z-score, knock-down alone": 0.566, "viability, knock-down alone": 0.978, "activity call": "inactive"}
{"Gene": "CRIM1 (cysteine rich transmembrane BMP regulator 1)", "robust z-score, knock-down alone": -1.18, "viability, knock-down alone": 0.725, "activity call": "inactive"}
{"Gene": "NAGK (N-acetylglucosamine kinase)", "robust z-score, knock-down alone": 0.715, "viability, knock-down alone": 1, "activity call": "inactive"}
{"Gene": "RAD21 (RAD21 cohesin complex component)", "robust z-score, knock-down alone": -1.74, "viability, knock-down alone": 0.644, "activity call": "inactive"}
{"Gene": "STYK1 (STY kinase 1)", "robust z-score, knock-down alone": 0.613, "viability, knock-down alone": 0.985, "activity call": "inactive"}
{"Gene": "ITPKC (inositol-trisphosphate 3-kinase C)", "robust z-score, knock-down alone": 0.0441, "viability, knock-down alone": 0.903, "activity call": "inactive"}
{"Gene": "FLT3 (fms related receptor tyrosine kinase 3)", "robust z-score, knock-down alone": 0.715, "viability, knock-down alone": 1, "activity call": "inactive"}
{"Gene": "VRK3 (VRK serine/threonine kinase 3)", "robust z-score, knock-down alone": 0.715, "viability, knock-down alone": 1, "activity call": "inactive"}
{"Gene": "CAMK2A (calcium/calmodulin dependent protein kinase II alpha)", "robust z-score, knock-down alone": 0.715, "viability, knock-down alone": 1, "activity call": "inactive"}
{"Gene": "PTEN (phosphatase and tensin homolog)", "robust z-score, knock-down alone": 0.462, "viability, knock-down alone": 0.963, "activity call": "inactive"}
{"Gene": "PRKAA1 (protein kinase AMP-activated catalytic subunit alpha 1)", "robust z-score, knock-down alone": 0.715, "viability, knock-down alone": 1, "activity call": "inactive"}
{"Gene": "KHK (ketohexokinase)", "robust z-score, knock-down alone": 0.34, "viability, knock-down alone": 0.945, "activity call": "inactive"}
{"Gene": "MAPKAPK2 (MAPK activated protein kinase 2)", "robust z-score, knock-down alone": 0.715, "viability, knock-down alone": 1, "activity call": "inactive"}
{"Gene": "TGFBR3 (transforming growth factor beta receptor 3)", "robust z-score, knock-down alone": 0.715, "viability, knock-down alone": 1, "activity call": "inactive"}
{"Gene": "DAPK1 (death associated protein kinase 1)", "robust z-score, knock-down alone": -0.0759, "viability, knock-down alone": 0.885, "activity call": "inactive"}
{"Gene": "FRK (fyn related Src family tyrosine kinase)", "robust z-score, knock-down alone": 0.715, "viability, knock-down alone": 1, "activity call": "inactive"}
{"Gene": "RBKS (ribokinase)", "robust z-score, knock-down alone": 0.715, "viability, knock-down alone": 1, "activity call": "inactive"}
{"Gene": "CRKL (CRK like proto-oncogene, adaptor protein)", "robust z-score, knock-down alone": 0.715, "viability, knock-down alone": 1, "activity call": "inactive"}
{"Gene": "SIK2 (salt inducible kinase 2)", "robust z-score, knock-down alone": 0.538, "viability, knock-down alone": 0.974, "activity call": "inactive"}
{"Gene": "TPD52L3 (TPD52 like 3)", "robust z-score, knock-down alone": 0.396, "viability, knock-down alone": 0.954, "activity call": "inactive"}
{"Gene": "TP53RK (TP53 regulating kinase)", "robust z-score, knock-down alone": -0.388, "viability, knock-down alone": 0.84, "activity call": "inactive"}
{"Gene": "MST1R (macrophage stimulating 1 receptor)", "robust z-score, knock-down alone": 0.715, "viability, knock-down alone": 1, "activity call": "inactive"}
{"Gene": "PLK4 (polo like kinase 4)", "robust z-score, knock-down alone": -1.84, "viability, knock-down alone": 0.629, "activity call": "inactive"}
{"Gene": "EPHB2 (EPH receptor B2)", "robust z-score, knock-down alone": -0.899, "viability, knock-down alone": 0.766, "activity call": "inactive"}
{"Gene": "PRKD3 (protein kinase D3)", "robust z-score, knock-down alone": 0.715, "viability, knock-down alone": 1, "activity call": "inactive"}
{"Gene": "MAP3K9 (mitogen-activated protein kinase kinase kinase 9)", "robust z-score, knock-down alone": -3.59, "viability, knock-down alone": 0.375, "activity call": "active"}

Part of the list above, set out differently:
TPD52L3 (TPD52 like 3): robust z-score, knock-down alone = 0.396; viability, knock-down alone = 0.954; activity call = inactive
TP53RK (TP53 regulating kinase): robust z-score, knock-down alone = -0.388; viability, knock-down alone = 0.84; activity call = inactive
MST1R (macrophage stimulating 1 receptor): robust z-score, knock-down alone = 0.715; viability, knock-down alone = 1; activity call = inactive
PLK4 (polo like kinase 4): robust z-score, knock-down alone = -1.84; viability, knock-down alone = 0.629; activity call = inactive
